No constants are given. Whether binding was seen depends on the method and setting.
Biological target: MBP-barr2 (barr2 fused to the C-terminus of maltose-binding protein) (UniProt P32120)
Experiment: pull-down; purified MBP-barr2 (5 μg, ∼0.11 μM) with purified JNK3α2 or CAMKIIδ (5 μg, ∼0.18 μM) and amylose resin in 20 mM Tris-HCl pH 8, 137 mM NaCl, 1% Nonidet P-40, 2 mM EDTA, 3 h at 4 °C; eluted with 50 mM maltose; SDS-PAGE and Western blot; both purified

The chains behind the UniProt entries cited, without tags or fusion partners. Where a name states a change or a piece, a line headed by the entry shows the natural chain unless it says otherwise.
UniProt P32120: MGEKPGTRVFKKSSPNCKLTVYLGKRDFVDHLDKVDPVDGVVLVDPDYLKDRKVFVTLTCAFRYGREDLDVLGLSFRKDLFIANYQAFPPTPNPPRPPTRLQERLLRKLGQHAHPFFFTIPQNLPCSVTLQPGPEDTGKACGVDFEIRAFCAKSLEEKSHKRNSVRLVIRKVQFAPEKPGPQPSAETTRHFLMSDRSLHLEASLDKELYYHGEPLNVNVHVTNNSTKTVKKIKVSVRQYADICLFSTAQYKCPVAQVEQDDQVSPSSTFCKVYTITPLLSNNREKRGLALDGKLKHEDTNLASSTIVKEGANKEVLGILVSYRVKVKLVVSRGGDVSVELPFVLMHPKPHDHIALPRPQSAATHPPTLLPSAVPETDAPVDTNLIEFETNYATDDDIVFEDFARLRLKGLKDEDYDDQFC
UniProt Q13557: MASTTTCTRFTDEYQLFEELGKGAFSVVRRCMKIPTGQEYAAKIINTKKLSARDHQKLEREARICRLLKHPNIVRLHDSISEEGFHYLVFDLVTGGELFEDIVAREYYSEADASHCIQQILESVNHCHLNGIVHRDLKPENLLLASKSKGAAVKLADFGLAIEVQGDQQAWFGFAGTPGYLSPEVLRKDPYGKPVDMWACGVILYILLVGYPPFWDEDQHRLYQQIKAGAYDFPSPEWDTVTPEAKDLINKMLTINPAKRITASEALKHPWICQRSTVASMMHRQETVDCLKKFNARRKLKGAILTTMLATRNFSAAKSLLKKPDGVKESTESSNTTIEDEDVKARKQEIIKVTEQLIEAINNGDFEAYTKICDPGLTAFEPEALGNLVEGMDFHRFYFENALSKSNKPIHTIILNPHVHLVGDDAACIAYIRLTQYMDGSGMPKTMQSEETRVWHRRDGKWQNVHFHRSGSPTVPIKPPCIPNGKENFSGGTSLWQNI

With “purified CAMKIIδ (from UniProt Q13557 1-499) (enzyme)” the binding was “no binding (tested: MBP-barr2 ∼0.11 μM; CAMKII ∼0.18 μM)”.
